{
  "source": "patent US20180185286A1",
  "about": "“POROUS MATERIALS CONTAINING COMPOUNDS INCLUDING […] ACTIVE SPECIES” (NOVARTIS PHARMA AG, priority 2014, published 2018)",
  "assay": "dissolution test, USP Dissolution Apparatus 2 (Example 12)",
  "assay_type": "physicochemical",
  "settings": "0.025 M sodium dodecyl sulfate, 900 mL, 37° C., 75 RPM, UV at 286 nm",
  "note": "At least one structure is not confirmed: it was looked up by name or label, or the drawing left a doubt.",
  "data": [
    {"smiles": "CC(C)OC(=O)C(C)(C)Oc1ccc(C(=O)c2ccc(Cl)cc2)cc1", "note": "[crushed bulk fenofibrate, fenofibrate]", "values": [
      {"measurement": "time to reach >80% dissolution", "value": 295.5, "unit": "min"}
    ]}
  ]
}
